These are yes or no findings as the source states them, for the method shown. In cells and extracts the contact can be indirect. Some binding calls cover weakened binding; strength is not graded here.
Target: Apolipoprotein L3 (APOL3), MYC-tagged, overexpressed from the PEGFP-APOL3-MYC vector (UniProt O95236)
Assay: co-IP; lysate of transfected MCF7 cells; MYC antibodies or YBX1 antibodies, IgG as negative control, overnight at 4 °C; agarose beads 3 h at 4 °C; PBS washes; western blotting

By UniProt entry, the sequences of proteins in these tests, tags left out.
UniProt O95236: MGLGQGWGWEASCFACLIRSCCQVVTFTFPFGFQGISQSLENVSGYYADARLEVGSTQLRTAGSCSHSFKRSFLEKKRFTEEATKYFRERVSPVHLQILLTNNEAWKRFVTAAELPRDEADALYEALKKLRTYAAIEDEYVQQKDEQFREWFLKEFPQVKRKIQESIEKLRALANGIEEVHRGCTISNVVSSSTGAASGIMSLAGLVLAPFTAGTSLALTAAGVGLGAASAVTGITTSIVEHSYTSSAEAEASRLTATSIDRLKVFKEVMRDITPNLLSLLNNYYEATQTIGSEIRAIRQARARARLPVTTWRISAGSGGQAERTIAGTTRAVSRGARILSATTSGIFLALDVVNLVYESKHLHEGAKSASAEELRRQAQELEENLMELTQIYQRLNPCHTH
UniProt P67809: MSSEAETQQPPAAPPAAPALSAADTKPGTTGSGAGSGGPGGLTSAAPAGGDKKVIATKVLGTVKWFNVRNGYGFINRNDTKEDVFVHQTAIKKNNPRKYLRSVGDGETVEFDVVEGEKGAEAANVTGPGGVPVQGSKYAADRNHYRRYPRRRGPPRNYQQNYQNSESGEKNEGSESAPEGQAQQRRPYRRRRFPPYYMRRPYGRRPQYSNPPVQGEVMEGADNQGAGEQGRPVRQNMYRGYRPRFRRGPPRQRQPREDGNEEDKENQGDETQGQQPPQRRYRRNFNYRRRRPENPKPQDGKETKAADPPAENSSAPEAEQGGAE

Y-box binding protein 1 (YBX1) (from UniProt P67809 1-324)
binding: binds
